Experimental data reported in publication PMC9098222.
Residue numbers refer to the chain shown, from its start. No constants are given. Whether binding was seen depends on the method and setting. In cells and extracts the contact can be indirect. Some binding calls cover weakened binding; strength is not graded here. For part of these data: Where a sequence is shown, tags or fusion partners need not be part of it.

The chains behind the UniProt entries cited, without tags or fusion partners.
UniProt P16591: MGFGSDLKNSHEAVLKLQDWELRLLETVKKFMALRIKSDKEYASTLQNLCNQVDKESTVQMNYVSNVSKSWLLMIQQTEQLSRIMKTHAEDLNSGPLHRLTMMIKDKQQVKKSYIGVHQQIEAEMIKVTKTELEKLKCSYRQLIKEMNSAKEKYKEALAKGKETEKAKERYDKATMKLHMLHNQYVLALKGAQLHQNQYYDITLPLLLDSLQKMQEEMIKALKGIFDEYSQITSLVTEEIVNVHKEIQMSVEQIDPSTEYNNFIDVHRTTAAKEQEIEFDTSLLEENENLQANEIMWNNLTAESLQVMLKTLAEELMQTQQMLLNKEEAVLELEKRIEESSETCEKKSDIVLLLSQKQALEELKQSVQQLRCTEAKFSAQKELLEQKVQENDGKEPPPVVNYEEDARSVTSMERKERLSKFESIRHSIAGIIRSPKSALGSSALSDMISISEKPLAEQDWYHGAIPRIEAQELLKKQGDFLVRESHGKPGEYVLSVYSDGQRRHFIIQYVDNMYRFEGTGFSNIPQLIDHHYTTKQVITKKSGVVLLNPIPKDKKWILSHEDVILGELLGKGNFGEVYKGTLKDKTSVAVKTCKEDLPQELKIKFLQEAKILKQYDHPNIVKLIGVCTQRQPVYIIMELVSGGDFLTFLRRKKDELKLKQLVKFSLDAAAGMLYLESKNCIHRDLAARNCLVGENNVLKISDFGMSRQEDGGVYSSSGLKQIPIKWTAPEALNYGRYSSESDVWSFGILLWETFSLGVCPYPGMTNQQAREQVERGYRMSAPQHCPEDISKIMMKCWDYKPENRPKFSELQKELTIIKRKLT
UniProt P27986: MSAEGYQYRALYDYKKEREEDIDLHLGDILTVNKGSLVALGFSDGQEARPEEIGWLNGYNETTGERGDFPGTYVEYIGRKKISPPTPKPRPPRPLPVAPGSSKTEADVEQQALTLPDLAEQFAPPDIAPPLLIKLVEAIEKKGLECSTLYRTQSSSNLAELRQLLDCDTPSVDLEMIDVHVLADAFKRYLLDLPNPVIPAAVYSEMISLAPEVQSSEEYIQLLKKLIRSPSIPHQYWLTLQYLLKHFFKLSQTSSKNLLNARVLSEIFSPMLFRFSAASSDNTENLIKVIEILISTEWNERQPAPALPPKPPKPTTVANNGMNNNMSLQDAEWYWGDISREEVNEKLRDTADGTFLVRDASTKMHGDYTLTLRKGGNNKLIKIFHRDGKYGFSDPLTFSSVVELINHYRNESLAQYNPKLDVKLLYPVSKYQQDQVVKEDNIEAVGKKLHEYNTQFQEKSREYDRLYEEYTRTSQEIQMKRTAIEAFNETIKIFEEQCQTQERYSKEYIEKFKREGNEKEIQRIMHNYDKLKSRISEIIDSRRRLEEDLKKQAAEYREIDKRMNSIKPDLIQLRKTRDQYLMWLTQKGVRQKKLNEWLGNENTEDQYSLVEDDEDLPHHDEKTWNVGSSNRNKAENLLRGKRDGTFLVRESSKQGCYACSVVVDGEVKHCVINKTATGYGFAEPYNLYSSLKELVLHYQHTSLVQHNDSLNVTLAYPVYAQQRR
UniProt P35568: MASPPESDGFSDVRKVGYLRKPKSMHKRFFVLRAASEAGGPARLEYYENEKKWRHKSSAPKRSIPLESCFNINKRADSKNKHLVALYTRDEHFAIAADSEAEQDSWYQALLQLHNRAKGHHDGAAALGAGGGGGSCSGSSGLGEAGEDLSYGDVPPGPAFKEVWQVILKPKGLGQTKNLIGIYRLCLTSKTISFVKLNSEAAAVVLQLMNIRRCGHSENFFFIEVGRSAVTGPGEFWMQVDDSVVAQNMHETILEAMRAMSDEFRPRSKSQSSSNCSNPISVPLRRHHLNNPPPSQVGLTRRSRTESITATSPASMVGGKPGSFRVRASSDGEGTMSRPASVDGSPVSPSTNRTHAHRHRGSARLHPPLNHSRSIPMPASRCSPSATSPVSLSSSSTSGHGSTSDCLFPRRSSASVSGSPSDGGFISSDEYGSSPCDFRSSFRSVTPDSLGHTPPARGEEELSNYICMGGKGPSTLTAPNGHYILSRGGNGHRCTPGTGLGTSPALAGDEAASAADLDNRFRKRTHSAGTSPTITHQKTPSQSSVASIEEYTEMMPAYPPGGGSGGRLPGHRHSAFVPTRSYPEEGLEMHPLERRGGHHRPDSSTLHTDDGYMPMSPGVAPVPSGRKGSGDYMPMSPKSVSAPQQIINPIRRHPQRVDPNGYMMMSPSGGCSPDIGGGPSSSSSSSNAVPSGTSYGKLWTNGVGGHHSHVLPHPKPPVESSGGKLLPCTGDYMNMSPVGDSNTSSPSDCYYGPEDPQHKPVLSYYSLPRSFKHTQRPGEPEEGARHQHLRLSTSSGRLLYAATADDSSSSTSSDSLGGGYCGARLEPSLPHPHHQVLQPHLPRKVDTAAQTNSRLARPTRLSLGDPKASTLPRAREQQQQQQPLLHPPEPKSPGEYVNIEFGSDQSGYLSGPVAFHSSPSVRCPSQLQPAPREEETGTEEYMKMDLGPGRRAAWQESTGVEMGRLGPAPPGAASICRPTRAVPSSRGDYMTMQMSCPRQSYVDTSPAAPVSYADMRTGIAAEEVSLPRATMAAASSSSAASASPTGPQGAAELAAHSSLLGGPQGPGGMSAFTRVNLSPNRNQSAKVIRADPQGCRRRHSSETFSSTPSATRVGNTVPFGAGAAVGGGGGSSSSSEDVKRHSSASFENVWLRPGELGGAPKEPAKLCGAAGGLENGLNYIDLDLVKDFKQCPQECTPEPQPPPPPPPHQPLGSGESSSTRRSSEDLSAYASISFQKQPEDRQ
UniProt O00459: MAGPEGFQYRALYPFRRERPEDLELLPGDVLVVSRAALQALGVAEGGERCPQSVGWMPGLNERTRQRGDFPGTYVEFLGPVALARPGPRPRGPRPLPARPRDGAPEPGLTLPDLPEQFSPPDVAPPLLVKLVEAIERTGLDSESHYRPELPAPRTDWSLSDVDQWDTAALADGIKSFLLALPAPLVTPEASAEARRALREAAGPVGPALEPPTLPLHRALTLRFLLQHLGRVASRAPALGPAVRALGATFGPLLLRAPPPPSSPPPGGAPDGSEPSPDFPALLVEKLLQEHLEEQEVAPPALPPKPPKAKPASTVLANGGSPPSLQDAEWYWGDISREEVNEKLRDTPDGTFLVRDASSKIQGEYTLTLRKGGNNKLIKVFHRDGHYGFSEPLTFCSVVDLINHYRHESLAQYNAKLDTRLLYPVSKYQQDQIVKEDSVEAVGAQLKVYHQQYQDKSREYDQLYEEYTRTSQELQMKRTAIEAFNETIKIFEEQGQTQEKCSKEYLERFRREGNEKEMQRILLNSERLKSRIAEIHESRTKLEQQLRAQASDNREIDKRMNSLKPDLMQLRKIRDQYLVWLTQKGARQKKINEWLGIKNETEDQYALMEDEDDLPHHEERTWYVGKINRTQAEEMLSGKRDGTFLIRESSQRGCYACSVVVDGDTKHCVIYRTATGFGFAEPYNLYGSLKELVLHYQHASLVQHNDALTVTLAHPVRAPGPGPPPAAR

Legend:
[1] = molecular target: T1, Myc-tagged IRS4 1–400 (human) (UniProt O14654); assay: co-IP; HEK293FT cells transiently co-transfected; lysis in 20 mM HEPES pH 7.5, 150 mM NaCl, 1% Nonidet P-40, 1 mM sodium orthovanadate; Myc-tagged IRS4 form precipitated with anti-Myc resin, partners found by immunoblot; some panels with or without co-expressed FLAG-IRS1, FLAG-PIK3R1 or FER
T1 sequence: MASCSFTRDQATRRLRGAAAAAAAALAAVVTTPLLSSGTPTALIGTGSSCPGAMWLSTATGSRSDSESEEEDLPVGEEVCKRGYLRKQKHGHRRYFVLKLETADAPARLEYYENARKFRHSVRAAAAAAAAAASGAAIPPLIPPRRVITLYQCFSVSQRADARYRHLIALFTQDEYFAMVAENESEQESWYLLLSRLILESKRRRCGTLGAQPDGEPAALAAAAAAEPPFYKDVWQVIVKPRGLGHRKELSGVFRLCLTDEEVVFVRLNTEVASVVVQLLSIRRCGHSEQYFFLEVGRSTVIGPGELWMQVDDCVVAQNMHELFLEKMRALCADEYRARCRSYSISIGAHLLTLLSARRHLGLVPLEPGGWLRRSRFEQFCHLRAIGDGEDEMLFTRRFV

[2] = molecular target: T2, Myc-tagged IRS4 (insulin receptor substrate 4), full-length (human) (UniProt O14654); assay: as above
T2 sequence: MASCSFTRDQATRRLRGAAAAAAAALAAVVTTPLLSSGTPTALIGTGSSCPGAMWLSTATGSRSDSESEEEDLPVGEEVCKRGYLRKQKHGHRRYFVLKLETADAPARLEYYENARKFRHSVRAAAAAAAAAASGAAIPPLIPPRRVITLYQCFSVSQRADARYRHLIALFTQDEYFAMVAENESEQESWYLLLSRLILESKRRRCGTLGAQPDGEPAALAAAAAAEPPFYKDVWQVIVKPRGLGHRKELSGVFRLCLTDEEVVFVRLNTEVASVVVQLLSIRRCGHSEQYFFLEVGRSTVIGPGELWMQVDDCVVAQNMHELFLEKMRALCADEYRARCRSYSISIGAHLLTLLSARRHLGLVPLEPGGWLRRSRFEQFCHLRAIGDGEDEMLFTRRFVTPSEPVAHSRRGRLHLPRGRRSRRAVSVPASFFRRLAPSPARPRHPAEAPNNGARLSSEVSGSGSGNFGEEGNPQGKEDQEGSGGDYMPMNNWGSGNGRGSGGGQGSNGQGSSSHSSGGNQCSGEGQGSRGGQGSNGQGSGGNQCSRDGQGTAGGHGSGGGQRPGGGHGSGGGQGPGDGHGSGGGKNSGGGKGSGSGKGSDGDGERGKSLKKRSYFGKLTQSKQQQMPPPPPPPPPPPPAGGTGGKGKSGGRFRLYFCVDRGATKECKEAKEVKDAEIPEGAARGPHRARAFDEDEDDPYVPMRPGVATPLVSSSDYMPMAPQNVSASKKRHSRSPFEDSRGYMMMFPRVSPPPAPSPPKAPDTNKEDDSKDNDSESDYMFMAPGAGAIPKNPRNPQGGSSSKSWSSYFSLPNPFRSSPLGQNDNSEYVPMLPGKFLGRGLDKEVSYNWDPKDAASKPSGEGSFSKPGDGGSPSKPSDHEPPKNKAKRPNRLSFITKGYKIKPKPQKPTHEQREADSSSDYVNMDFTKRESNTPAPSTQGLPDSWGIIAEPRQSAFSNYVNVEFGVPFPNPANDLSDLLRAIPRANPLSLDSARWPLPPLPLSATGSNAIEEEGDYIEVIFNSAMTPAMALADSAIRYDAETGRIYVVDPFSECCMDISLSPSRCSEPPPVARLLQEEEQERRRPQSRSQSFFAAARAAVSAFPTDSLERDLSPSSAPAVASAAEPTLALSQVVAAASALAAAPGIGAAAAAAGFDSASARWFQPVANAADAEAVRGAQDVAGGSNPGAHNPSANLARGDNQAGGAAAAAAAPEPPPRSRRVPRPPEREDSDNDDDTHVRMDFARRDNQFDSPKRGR

[3] = molecular target: T3, IRS4, endogenous in OVCAR-5 cells (human (endogenous in OVCAR-5)) (UniProt O14654); assay: co-IP; endogenous proteins in OVCAR-5 cell lysates; anti-FER or anti-IRS4 antibody against anti-IgG control, protein A/G beads, immunoblot; also in FER-KO and IRS4-KO cells and in cells treated with TAE684 (0.01, 0.1, 1 μM, 24 hr) or BMS-536924
T3 sequence: T2 sequence

[4] = molecular target: T4, Myc-tagged IRS4 Y779F (human) (UniProt O14654); assay: co-IP; HEK293FT cells transiently co-transfected; lysis in 20 mM HEPES pH 7.5, 150 mM NaCl, 1% Nonidet P-40, 1 mM sodium orthovanadate; Myc-tagged IRS4 form precipitated with anti-Myc resin, partners found by immunoblot; some panels with or without co-expressed FLAG-IRS1, FLAG-PIK3R1 or FER
T4 sequence: T2 sequence with Y779F

[5] = molecular target: T5, Myc-tagged IRS4 200–400 (PTB domain only) (human) (UniProt O14654); assay: as above
T5 sequence: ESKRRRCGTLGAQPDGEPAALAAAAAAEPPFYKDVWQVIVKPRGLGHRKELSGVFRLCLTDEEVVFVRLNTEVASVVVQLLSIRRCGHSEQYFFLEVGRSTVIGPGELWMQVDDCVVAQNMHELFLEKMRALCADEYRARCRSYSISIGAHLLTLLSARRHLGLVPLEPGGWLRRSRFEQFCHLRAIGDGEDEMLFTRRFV

[6] = molecular target: T6, Myc-tagged IRS4 1–200 (PH domain only) (human) (UniProt O14654); assay: as above
T6 sequence: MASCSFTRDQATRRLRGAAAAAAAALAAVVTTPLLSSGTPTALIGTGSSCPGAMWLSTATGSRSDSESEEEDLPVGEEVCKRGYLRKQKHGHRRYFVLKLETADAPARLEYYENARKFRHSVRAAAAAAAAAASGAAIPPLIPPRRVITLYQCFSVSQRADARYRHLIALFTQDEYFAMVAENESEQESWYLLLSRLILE

[7] = molecular target: FER, endogenous in OVCAR-5 cells (human (endogenous in OVCAR-5)) (UniProt P16591); assay: co-IP; endogenous proteins in OVCAR-5 cell lysates; anti-FER or anti-IRS4 antibody against anti-IgG control, protein A/G beads, immunoblot; also in FER-KO and IRS4-KO cells and in cells treated with TAE684 (0.01, 0.1, 1 μM, 24 hr) or BMS-536924

Substance: FER (wild-type, no tag named) (from UniProt P16591 1-822) (enzyme)
- binding [1]: binds
- binding [2]: binds

Substance: FER, endogenous in OVCAR-5 cells (from UniProt P16591 1-822) (enzyme)
- binding [3]: binds

Substance: FLAG-tagged PIK3R1 (p85α) (from UniProt P27986 1-724)
- binding [2]: binds
- binding [4]: binds

Substance: GFP-tagged FER (from UniProt P16591 1-822) (enzyme)
- binding [5]: binds
- binding [1]: binds
- binding [2]: binds
- binding [6]: binds

Substance: IRS1, endogenous in OVCAR-5 cells (from UniProt P35568 1-1242)
- binding [7]: binds

Substance: PIK3R2 (p85β), endogenous in OVCAR-5 cells (from UniProt O00459 1-728)
- binding [3]: binds

Substance: PIK3R2 expressed from pCMV3-PIK3R2 (from UniProt O00459 1-728)
- binding [2]: binds
